Measurements published in paper PMC5970183.
These are yes or no findings as the source states them, for the method shown. Binding seen in cells or lysates may run through a third protein.

Sequences of proteins named here, by UniProt entry; tags and fusion partners are left off.
UniProt P00573: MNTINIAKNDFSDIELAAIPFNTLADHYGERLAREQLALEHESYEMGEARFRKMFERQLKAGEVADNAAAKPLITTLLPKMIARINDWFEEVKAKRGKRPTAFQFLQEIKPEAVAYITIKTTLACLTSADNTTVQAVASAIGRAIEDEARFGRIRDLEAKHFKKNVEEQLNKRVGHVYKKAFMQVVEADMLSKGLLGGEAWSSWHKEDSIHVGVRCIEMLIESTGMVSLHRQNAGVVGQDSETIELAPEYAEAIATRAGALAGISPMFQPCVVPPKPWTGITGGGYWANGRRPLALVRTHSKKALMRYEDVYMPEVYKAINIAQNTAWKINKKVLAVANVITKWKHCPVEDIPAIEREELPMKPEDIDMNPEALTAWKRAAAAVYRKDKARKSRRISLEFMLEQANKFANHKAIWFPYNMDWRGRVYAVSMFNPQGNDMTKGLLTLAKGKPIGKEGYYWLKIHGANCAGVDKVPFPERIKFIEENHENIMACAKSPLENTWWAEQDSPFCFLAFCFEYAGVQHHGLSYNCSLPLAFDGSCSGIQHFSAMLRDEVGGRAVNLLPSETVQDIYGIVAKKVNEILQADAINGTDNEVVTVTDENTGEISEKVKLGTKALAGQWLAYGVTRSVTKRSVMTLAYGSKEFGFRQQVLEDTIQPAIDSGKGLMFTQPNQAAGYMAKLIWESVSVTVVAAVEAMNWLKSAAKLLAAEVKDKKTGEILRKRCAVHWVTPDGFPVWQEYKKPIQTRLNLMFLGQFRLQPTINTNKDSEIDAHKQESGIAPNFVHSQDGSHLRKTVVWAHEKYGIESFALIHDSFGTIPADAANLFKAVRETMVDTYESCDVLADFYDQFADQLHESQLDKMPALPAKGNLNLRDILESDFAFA

Target: T1, human viperin (human) (UniProt Q8WXG1)
T1 sequence: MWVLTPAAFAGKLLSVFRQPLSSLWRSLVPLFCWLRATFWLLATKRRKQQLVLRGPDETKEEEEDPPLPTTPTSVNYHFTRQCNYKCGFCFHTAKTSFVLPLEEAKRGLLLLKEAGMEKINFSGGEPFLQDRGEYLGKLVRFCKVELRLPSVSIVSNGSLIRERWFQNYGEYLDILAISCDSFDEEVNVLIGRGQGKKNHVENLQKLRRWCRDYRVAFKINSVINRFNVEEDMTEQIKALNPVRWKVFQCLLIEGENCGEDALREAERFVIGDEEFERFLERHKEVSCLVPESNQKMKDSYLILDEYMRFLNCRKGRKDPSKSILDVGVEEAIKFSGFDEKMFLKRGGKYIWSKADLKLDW
Experiment: co-IP; HEK293-T7 cells transfected with viperin or control plasmid, lysed 48 h later in M2 lysis buffer (50 mM Tris pH 7.4, 50 mM NaCl, 10% glycerol, 1% Triton X-100, 0.5 mM EDTA, 0.5 mM EGTA); lysate incubated 3 h at 4 °C with anti-viperin antibody on protein A/G agarose beads; Western blot with anti-viperin and anti-T7 polymerase antibodies

For “Bacteriophage T7 DNA-dependent RNA polymerase (from UniProt P00573 1-883) (enzyme)”, the binding was “no binding”.
